These are yes or no findings as the source states them, for the method shown. Binding seen in cells or lysates may run through a third protein. Some results given as binding are weak or reduced against the parent protein; the word gives no strength.
Key:
ERK1 (human) [1] = biological target: ERK1 (human) (UniProt P27361); assay: co-immunoprecipitation from cell lysates, western blot
ERK1 (human) [2] = biological target: ERK1 (human) (UniProt P27361); assay: co-immunoprecipitation from cell lysates: IP Rhamm, immunoblot ERK1,2
ERK1 (human) [3] = biological target: ERK1 (human) (UniProt P27361); assay: summary of co-immunoprecipitation and pull-down assays

The chains behind the UniProt entries cited, without tags or fusion partners. Residues count along the entry.
UniProt P27361, residues 2-379: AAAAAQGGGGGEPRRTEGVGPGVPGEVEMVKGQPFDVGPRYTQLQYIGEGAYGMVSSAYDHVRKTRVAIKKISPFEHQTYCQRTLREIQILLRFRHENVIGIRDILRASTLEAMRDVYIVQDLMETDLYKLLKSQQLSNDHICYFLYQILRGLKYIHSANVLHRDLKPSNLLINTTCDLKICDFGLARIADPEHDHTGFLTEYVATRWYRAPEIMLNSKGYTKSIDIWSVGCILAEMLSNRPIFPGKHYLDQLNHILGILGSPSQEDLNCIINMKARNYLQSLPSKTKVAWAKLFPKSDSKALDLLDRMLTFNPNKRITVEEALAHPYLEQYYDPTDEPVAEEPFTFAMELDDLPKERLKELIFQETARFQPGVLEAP

binding (ERK1 (human) [1]): binds
binding (ERK1 (human) [2]): binds
binding (ERK1 (human) [3]): binds
B1: Rhamm (Receptor for Hyaluronic Acid Mediated Motility), protein form not specified (receptor, human, UniProt O75330 1-724, looked up)
chain: MSFPKAPLKRFNDPSGCAPSPGAYDVKTLEVLKGPVSFQKSQRFKQQKESKQNLNVDKDTTLPASARKVKSSESKESQKNDKDLKILEKEIRVLLQERGAQDRRIQDLETELEKMEARLNAALREKTSLSANNATLEKQLIELTRTNELLKSKFSENGNQKNLRILSLELMKLRNKRETKMRGMMAKQEGMEMKLQVTQRSLEESQGKIAQLEGKLVSIEKEKIDEKSETEKLLEYIEEISCASDQVEKYKLDIAQLEENLKEKNDEILSLKQSLEENIVILSKQVEDLNVKCQLLEKEKEDHVNRNREHNENLNAEMQNLKQKFILEQQEREKLQQKELQIDSLLQQEKELSSSLHQKLCSFQEEMVKEKNLFEEELKQTLDELDKLQQKEEQAERLVKQLEEEAKSRAEELKLLEEKLKGKEAELEKSSAAHTQATLLLQEKYDSMVQSLEDVTAQFESYKALTASEIEDLKLENSSLQEKAAKAGKNAEDVQHQILATESSNQEYVRMLLDLQTKSALKETEIKEITVSFLQKITDLQNQLKQQEEDFRKQLEDEEGRKAEKENTTAELTEEINKWRLLYEELYNKTKPFQLQLDAFEVEKQALLNEHGAAQEQLNKIRDSYAKLLGHQNLKQKIKHVVKLKDENSQLKSEVSKLRCQLAKKKQSETKLQEELNKVLGIKHFDPSKAFHHESKENFALKTPLKEGNTNCYRAPMECQESWK
